PubChem BioAssay AID1508588, Peter MacCallum Cancer Centre – 2020
Screen: 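Knock-downs boosting vemurafenib effects on melanoma cell growth or lactate release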 (primary screen). Cell system: human WM266.4 melanoma cells (BRAF V600 mutant). Reagent: siRNA pool against human genes, 40 nM. Duration: 96 h from transfection to read-out. Conditions: vemurafenib 300 nM (about IC25), added 48 h after transfection, for 48 h; comparison arm got DMSO vehicle only. Measurement: 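Cell gain (DAPI nuclei at end minus before drug, mean of two replicates) and medium lactate by absorbance per cell, both as ratio to non-targeting siRNA, also grouped into fold-change classes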. Reading the numbers: cell gain with vemurafenib: higher = more cell gain than with non-targeting siRNA; lactate per cell with vemurafenib: higher = more lactate made per cell. Hit rule: 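Enhancement is called by pairing each knock-down's vehicle-arm and drug-arm fold-change classes for viability or glycolysis; which class combinations qualify is not given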. Calls: active = enhances vemurafenib effect; inactive = no enhancement seen.
The whole screen tested about 18,000 reagents; this is an unselected part. 790 of them (4.4%) count as active. 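Calls rest on a combination of fold-change classes in drug and vehicle arms, not all shown here.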 Entries without a mark were called inactive. Reagents against one gene are numbered here.

The opening 2 records as a preview:
gene,pool no.,cell gain with vemurafenib,lactate per cell with vemurafenib
BSND,1,0.5,0.88
RBM26,1,0.4,1.57

Results, repeating the preview:
gene,pool no.,cell gain with vemurafenib,lactate per cell with vemurafenib
BSND,1,0.5,0.88
RBM26,1,0.4,1.57
NFE2L1,1,0.18,1.24
ZNF33A,1,1.03,0.92
WBP11,1,0.22,2
INA,1,0.45,1.42
SLC33A1,1,0.75,0.74
C8orf82,1,0.84,0.86
ANXA13,1,0.97,1.25
ZNF740,1,0.87,0.64
CCDC78,1,0.8,1.31
IL24,1,0.67,0.47
GOLGA5,1,0.87,0.82
SDSL,1,0.77,1.42
DCAF16,1,0.51,0.74
RLBP1,1,0.88,1.5
GPX5,1,0.33,2.08
INSIG2,1,0.83,0.64
ANKRD9,1,1.11,1.16
ADGRG1,1,0.72,0.92
BCL3,1,0.29,2
TDRD6,1,0.85,1.18
DHX30,1,0.69,0.83
SPATA31A1,1,1.05,0.79
SPATA31A1,2,1.16,0.64
INHBC,1,0.85,0.88
APEH,1,0.91,0.88
HDAC8,1,0.68,1.75
RPS6KA5,1,0.25,1.31
HSPA4L,1,1.03,1.06
GPR45,1,0.82,0.94
CABP2,1,1.12,1.15
ZNF100,1,0.24,2.09
COL9A3,1,0.24,1.88
KRT3,1,0.49,0.95
IL11RA,1,0.7,0.64
ARPP21,1,1.07,0.8
TUBG1,1,0.37,1.72
ITM2B,1,0.85,1.02
ZNF644,1,0.74,0.67
CDK11B,1,0.26,1.23
TTLL11,1,0.62,0.84
B4GAT1,1,0.59,1.2
RCC1L,1,0,0
CASP6,1,0.55,0.84
EPCIP,1,0.29,0.58
SEZ6L2,1,0.86,0.9
RDH13,1,0.34,1.43
ADIRF,1,0.32 (active),0.45
KIF19,1,-0.02,0.84
SLX1B,1,0.67,1.06
VWA5B1,1,1.56,0.77
CAPN11,1,0.67,1.06
TUBGCP5,1,0.9,0.58
CCDC8,1,0.18,2.56
PSG3,1,0.84,0.84
SPEG,1,0.37,0.82
MTMR9,1,0.63,1.32
RFX3,1,0.6,1.05
OBI1,1,0.5,0.04
NAGK,1,-0.03,3.38
LRRC75B,1,0.77,1.12
CCDC13,1,0.84,0.82
C22orf23,1,0.02,0.71
NOXO1,1,0.78,1.22
CFAP157,1,0.83,1.42
MVD,1,0.06,1.58
ELAVL4,1,0.52 (active),0.44
TBC1D8,1,0.17,1.14
FOXM1,1,0.39,1
PSMB8,1,0.53,0.85
ITGA4,1,1.27,0.77
SNX14,1,0.56,0.94
AKIRIN1,1,0.36,2.23
APOA1,1,0.88,0.57
TSPAN4,1,0.23 (active),0.52
TBC1D9B,1,0.39,1.46
GPS1,1,0.11,1.73
CEBPA,1,0.94,1.06
SLC4A7,1,0.4,0.39
TSPYL5,1,0.59,0.53
CDK1,1,-0.06,6.88
OR4F15,1,1,1.09
DUSP22,1,0.79,1.12
